# Results published in patent publication US20160271230A1 (UNIVERSITY HEALTH NETWORK, published 2016).
# These are yes or no findings as the source states them, for the method shown. Where a sequence is shown, tags or fusion partners need not be part of it.
# Target: 4Ig domain of DCC
# Experiment: plate binding assay, N-Raft-AP on wells coated with DCC-4Ig (FIG. 9C)
binder,measurement,value
"SPCKILKCNSEFWAATSGSHHLGAEETPEFCTALRAYAHCTRRTAR (peptide, not shown: large carriers) [N-Raft fused with alkaline phosphatase]",binding,no binding
